{"source": "PubChem BioAssay AID504786 (Drosophila RNAi Screening Center, 2011)", "purpose": "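Fly genes required for HIF-dependent transcription when hypoxia is mimicked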 (primary screen)", "cell system": "Drosophila S2 cells with a stable HIF luciferase reporter", "knock-down reagent": "long dsRNA against Drosophila genes, about 0.2 µg dsRNA per well of a 384-well plate", "duration": "three days of knock-down, then 20 h of DFO before reading", "conditions": "desferrioxamine (DFO) at 100 µM, an iron chelator that mimics hypoxia, for 20 h", "detection": "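HIF reporter luminescence in cells given 100 µM DFO for 20 h, using the mouse ldh-a hypoxia-response element, scored as per-plate z-scores; higher means greater loss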", "reading the numbers": "z-score: higher = stronger loss of HIF reporter signal", "note": "The deposit covers about 21,000 reagents; shown is a random part of those with a known target gene and a result. 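Primary screen; positive scores mean lost reporter signal, so the sign may be inverted from the usual convention.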 Names joined by + are all predicted targets of the reagent."}
{"gene": "CG42812 + CG42811", "amplicon": "DRSC15367", "z-score, replicate 1": -0.5, "z-score, replicate 2": 0.6}
{"gene": "CG42812 + CG42811", "amplicon": "DRSC15368", "z-score, replicate 1": -0.2, "z-score, replicate 2": -0.7}
{"gene": "nmdyn-D7 (GeneID 41174)", "amplicon": "DRSC17016", "z-score, replicate 1": -0.3, "z-score, replicate 2": -0.4}
{"gene": "ETHR (GeneID 42523)", "amplicon": "DRSC15915", "z-score, replicate 1": 0.6, "z-score, replicate 2": 0.2}
{"gene": "Rpp20 + CG33932", "amplicon": "DRSC19467", "z-score, replicate 1": 0.2, "z-score, replicate 2": 0.2}
{"gene": "CG15450 (GeneID 33064)", "amplicon": "DRSC20522", "z-score, replicate 2": -0.5, "z-score, replicate 3": 4.2, "z-score, replicate 4": -0.3}
{"gene": "Spt3 (GeneID 41461)", "amplicon": "DRSC15465", "z-score, replicate 1": 0.1, "z-score, replicate 2": 0.3}
{"gene": "Nup44A (GeneID 35762)", "amplicon": "DRSC07248", "z-score, replicate 1": 0.6, "z-score, replicate 2": 0.4}
{"gene": "CG6700 (GeneID 34496)", "amplicon": "DRSC02980", "z-score, replicate 1": 0.5, "z-score, replicate 2": 0.4}
{"gene": "Snm1 (GeneID 40669)", "amplicon": "DRSC12130", "z-score, replicate 1": -0.4, "z-score, replicate 2": -0.7}
{"gene": "Spc105R (GeneID 40300)", "amplicon": "DRSC11663", "z-score, replicate 1": 2.4, "z-score, replicate 2": 2.4}

3 neighbouring entries from above:
{"gene": "CG42812 + CG42811", "amplicon": "DRSC15367", "z-score, replicate 1": -0.5, "z-score, replicate 2": 0.6}
{"gene": "CG42812 + CG42811", "amplicon": "DRSC15368", "z-score, replicate 1": -0.2, "z-score, replicate 2": -0.7}
{"gene": "nmdyn-D7 (GeneID 41174)", "amplicon": "DRSC17016", "z-score, replicate 1": -0.3, "z-score, replicate 2": -0.4}

Further results follow:
{"gene": "grau (GeneID 45871)", "amplicon": "DRSC04691", "z-score, replicate 1": -0.5, "z-score, replicate 2": -0.7}
{"gene": "Rab7 (GeneID 42841)", "amplicon": "DRSC16810", "z-score, replicate 1": -0.2, "z-score, replicate 2": -0.5}
{"gene": "LIMK1 (GeneID 32207)", "amplicon": "DRSC19811", "z-score, replicate 1": -0.2, "z-score, replicate 2": -0.4}
{"gene": "RhoU (GeneID 31945)", "amplicon": "DRSC17635", "z-score, replicate 1": -0.4, "z-score, replicate 2": -0.4}
{"gene": "RhoU (GeneID 31945)", "amplicon": "DRSC17803", "z-score, replicate 1": -0.2, "z-score, replicate 2": -0.4}
{"gene": "RhoU (GeneID 31945)", "amplicon": "DRSC17804", "z-score, replicate 1": -0.2, "z-score, replicate 2": -0.5, "z-score, replicate 3": 0.3, "z-score, replicate 4": 0.1}
{"gene": "crq (GeneID 33219)", "amplicon": "DRSC00810", "z-score, replicate 1": -0.1, "z-score, replicate 2": -0.9}
{"gene": "spirit (GeneID 31797)", "amplicon": "DRSC18202", "z-score, replicate 1": -0.3, "z-score, replicate 2": -0.3}
{"gene": "Lnpk (GeneID 35842)", "amplicon": "DRSC07254", "z-score, replicate 1": -0.1, "z-score, replicate 2": -0.1}
{"gene": "Rab5 (GeneID 33418)", "amplicon": "DRSC00777", "z-score, replicate 1": -0.3, "z-score, replicate 2": -0.3}
{"gene": "Ubr1 (GeneID 32687)", "amplicon": "DRSC20148", "z-score, replicate 1": -0.5, "z-score, replicate 2": 0.6}
{"gene": "side-VII (GeneID 41184)", "amplicon": "DRSC14578", "z-score, replicate 1": -0.3, "z-score, replicate 2": -0.8}
{"gene": "CG1695 (GeneID 33046)", "amplicon": "DRSC20538", "z-score, replicate 1": -0.4, "z-score, replicate 2": -0.6}
{"gene": "gl (GeneID 42210)", "amplicon": "DRSC16957", "z-score, replicate 1": -1.1, "z-score, replicate 2": 0.3}
{"gene": "CG7423 (GeneID 32894)", "amplicon": "DRSC20044", "z-score, replicate 1": -0.2, "z-score, replicate 2": -0.6}
{"gene": "CG31612 (GeneID 35427)", "amplicon": "DRSC03697", "z-score, replicate 1": -0.4, "z-score, replicate 2": -0.2}
{"gene": "CG31612 (GeneID 35427)", "amplicon": "DRSC03698", "z-score, replicate 1": -0.3, "z-score, replicate 2": 0}
